In this experiment the target is Human wt S100B (human) (UniProt P04271). The experiment is described as follows: native gel or EMSA + SEC; data not shown; purified recombinant S100B dimer and tetramer added to rat hippocampal cultures; SDS-PAGE also named; both purified. (A gel shift assay detects complexes by their altered migration in electrophoresis.)

Results are given in words; binding and its absence hold for the method and conditions named. Some entries that bind do so weakly or less than the wild type.

B1: Human wt S100B (protein, UniProt P04271 1-92)
chain: MSELEKAMVALIDVFHQYSGREGDKHKLKKSELKELINNELSHFLEEIKEQEVVDKVMETLDNDGDGECDFQEFMAFVAMVTTACHEFFEHE
Consider B1, for which the binding result is recorded as “binds”.

For the origin of these results see PMC5776125.
